Patent publication US10646479B2, “Use of N-(4-iodobenzoylamino)-5-ethyl-1,2,3,6-tetrahydropyridine as a treatment for cancer” (Florida A&M University, priority 2018, dated 2020)

Tested on: MDA-MB-231 cell line
Experiment: CellTiter-Glo (CTG) luminescent cell viability assay, MDA-MB-231 cells
Assay type: cell-based
Conditions: Homo sapiens, MDA-MB-231 triple negative breast cancer cells
Method: This compound was evaluated against three types of cancer cells: Ishikawa, MDA-MB-231, and MCF-7 using the CellTiter-Glo (CTG) luminescent cell viability assay. Ishikawa cell line is an endometrial adenocarcinoma isolated from a person. MDA-MB-231 is a triple negative breast cancer cell line isolated from a person. MCF-7 is an estrogen receptor positive breast cancer cell line isolated from a person. […] Tamoxifen is a selective estrogen receptor modulator (SERM).

## CC/C(=C(\c1ccccc1)c1ccc(OCCN(C)C)cc1)c1ccccc1 [Tamoxifen, reference compound]
  IC50: 29.4 µM
